Reference: PubChem BioAssay AID1259254 (NCATS, 2017)

Screen: 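Gene knock-downs that lead to re-replication, shown by excess G2 DNA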 (primary screen)
Cells: human HCT116 colorectal cancer cells
Reagent: single siRNA against human genes
Timing: 3 days
Measurement: 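Imaged Hoechst DNA stain sorts each cell into a cycle phase by DNA amount; per plate, G2 fraction set to 0% for non-targeting and 100% for GMNN siRNA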
Direction: G2 robust z-score: higher = more G2 cells, more excess DNA replication
Active means: 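Active siRNAs have a G2 robust z of 5 or more median absolute deviations over the median, which in these data means about 38% or higher of GMNN control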
This is a random part of about 59,000 reagents. About 1,550 of all reagents (2.6%) were called active. 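G2 share is only a proxy for re-replication; each gene was hit by three separate siRNAs, and active genes were retested.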 A number with no mark means an inactive call. The numbers tell different reagents against one gene apart. Further read-outs or replicates are left out here. Not stated in the record: the amount of reagent.

FYRD1 #1
- G2 robust z-score: -0.221

FYRD1 #2
- G2 robust z-score: 2.88

FYRD1 #3
- G2 robust z-score: 1.96

ATP6V0D2 #1
- G2 robust z-score: -1.26

ATP6V0D2 #2
- G2 robust z-score: -0.749

ATP6V0D2 #3
- G2 robust z-score: 3.7

RPS8P4 #1
- G2 robust z-score: 3.52

RPS8P4 #2
- G2 robust z-score: 0.653

RPS8P4 #3
- G2 robust z-score: -0.951

PRPF19 #1
- G2 robust z-score: -0.848

PRPF19 #2
- G2 robust z-score: -0.0626

PRPF19 #3
- G2 robust z-score: 1.74

CLSTN2 #1
- G2 robust z-score: 0.445

CLSTN2 #2
- G2 robust z-score: 0.892

CLSTN2 #3
- G2 robust z-score: -0.417

RREB1 #1
- G2 robust z-score: 3.63

RREB1 #2
- G2 robust z-score: -1.05

RREB1 #3
- G2 robust z-score: 3.21

Next part, starting with the last 4 of the part before.
CLSTN2 #3
- G2 robust z-score: -0.417

RREB1 #1
- G2 robust z-score: 3.63

RREB1 #2
- G2 robust z-score: -1.05

RREB1 #3
- G2 robust z-score: 3.21

ADTRP #1
- G2 robust z-score: 4.79

ADTRP #2
- G2 robust z-score: -0.875

ADTRP #3
- G2 robust z-score: -0.124

OTOP2 #1
- G2 robust z-score: -0.868

OTOP2 #2
- G2 robust z-score: -0.947

OTOP2 #3
- G2 robust z-score: 3.24

PEX1 #1
- G2 robust z-score: -1.14

PEX1 #2
- G2 robust z-score: 2.55

PEX1 #3
- G2 robust z-score: -0.985

CA6 #1
- G2 robust z-score: 1.45

CA6 #2
- G2 robust z-score: -0.979

CA6 #3
- G2 robust z-score: 0.972
